# Measured values: PubChem BioAssay AID2685 (National Center for Advancing Translational Sciences (NCATS), 2010)
# Some of the results follow. Further columns of the screen follow, without active or inactive calls. The list favours compounds with an active or inconclusive main result. The note in brackets gives the kind of curve behind each potency; many fits are weak.
# Assay: qHTS Assay for Lipid Storage Modulators in Drosophila S3 Cells;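 as to cell number change: cells counted by Cell Tracker Red CMTPX staining in the red channel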
# Conditions: BODIPY lipid droplet fluorescence, 18-24 h; for cell number change: measured here: cell count max response, cells fed with added oleic acid
# In short: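 Laser-scanning cytometry quantifies lipid droplet accumulation (500–530 nm total intensity; droplet/cell object ratio) in oleic acid-fed (400 uM added) Drosophila S3 cells treated with a concentration series. 20 uM Triacsin C defined 100% inhibition.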
# [1] = measured here: lipid fluorescence (Fed channel) AC50, cells fed with added oleic acid
# [2] = measured here: cell number channel AC50, cells fed with added oleic acid
Compound,AC50 [1],cell number change [%],AC50 [2]
CN1CCN(C(=O)CN(C2CCCCC2)S(=O)(=O)c2ccccc2)CC1,"130 nM [falling, full curve, poor fit]",–,–
CC(=O)c1c(C)n(-c2ccccc2)c2ccc(OCC(O)CN3CCOCC3)cc12 (stereo not given),"8200 nM [rising, partial curve]",23.9,–
CCOC(=O)CSc1nnc(CNC(=O)c2cccc(C)c2)n1C,–,7.24,"4110 nM [falling, single point]"
CC(=O)c1sc(NC(=O)Cc2c(F)cccc2Cl)nc1C,"2510 nM [falling, full curve, poor fit]",9.21,–
O=C(NCc1cccnc1)c1ccc([N+](=O)[O-])o1,"6.51 nM [falling, full curve, poor fit]",-15.7,–
CCOC(=O)CCCCC(=O)NC(CO)C(=O)NC (stereo not given),"731 nM [falling, full curve, poor fit]",–,"65.1 nM [falling, full curve, poor fit]"
COc1ccc(CCN2C(=O)C(O)=C(C(C)=O)C2c2ccccc2OC)cc1OC (stereo not given),–,-1.94,"2590 nM [falling, partial curve, poor fit]"
CCCc1cc(=O)n2[nH]c(NCc3ccccc3Cl)nc2n1,–,-4.46,"1300 nM [rising, partial curve, poor fit]"
COc1ccc(CNC(=O)C(C)NC(=O)c2cc3ccccc3o2)cc1 (stereo not given),"1840 nM [rising, partial curve]",–,"2310 nM [rising, partial curve]"
COc1ccc(C2=NN(C(=O)c3ccco3)C(c3ccco3)C2)cc1OC (stereo not given),"6510 nM [rising, partial curve]",31.2,–
COC(=O)CCNc1ccc2c(c1)OCCO2,–,5.18,–
COc1ccc(C(=O)Nc2ccc3c(c2)n(C)c(=O)n3C)cc1OC,–,-29,–
Cc1ccc(N2C(=O)c3cccc4c(N)ccc(c34)C2=O)c2cccnc12,"11600 nM [falling, partial curve, poor fit]",-41.6,"8200 nM [falling, partial curve]"
O=C(Nc1ccon1)c1ccc2c(c1)OCO2,"6510 nM [rising, single point]",–,–
NC(=O)c1ccccc1NC(=O)N1CCOCC1,"29100 nM [rising, single point]",13.4,–
COc1ccc(NC(=O)CN2C(=O)NC(c3ccccc3)(c3ccccc3)C2=O)cc1,"3660 nM [rising, full curve]",–,–
O=C(Nc1nnc(-c2ccccc2Cl)o1)c1nc2ccccc2s1,–,-61.5,"16400 nM [falling, single point]"
COc1ccc(OC)c(NC(=O)C2CCCN2S(=O)(=O)c2cccc3nsnc23)c1 (stereo not given),–,-22.1,–
CN(c1ccc(C(=O)N2CCCCCC2)cc1)S(=O)(=O)c1ccc(Cl)cc1,–,6.34,"731 nM [rising, full curve]"
Cc1ccc(/C=C/C(=O)NCc2ccc3c(c2)OCO3)o1,"1840 nM [rising, partial curve, poor fit]",10,–
CC(=O)c1cccc(NC(=O)C(OC(=O)c2ccccc2NS(=O)(=O)c2cccs2)c2ccccc2)c1 (stereo not given),–,-8.67,–

# Reformatted as tab-separated lines: part of the list above.
Compound	AC50 [1]	cell number change [%]	AC50 [2]
Cc1ccc(/C=C/C(=O)NCc2ccc3c(c2)OCO3)o1	1840 nM [rising, partial curve, poor fit]	10	–
CC(=O)c1cccc(NC(=O)C(OC(=O)c2ccccc2NS(=O)(=O)c2cccs2)c2ccccc2)c1 (stereo not given)	–	-8.67	–

# Remaining list, next part:

Compound,AC50 [1],cell number change [%],AC50 [2]
CC1CCN(CCOc2ccc(C(=O)c3ccccc3)cc2)CC1,"731 nM [rising, full curve, poor fit]",10.1,–
Fc1ccc(-n2cc(-c3ccccc3)c3c(=S)nc[nH]c32)cc1,–,3.58,–
CNC(=S)N/N=C/c1cc(C)n(-c2ccc(Cl)c(Cl)c2)c1C,"92 nM [falling, full curve, poor fit]",-13.1,–
CC(C)(C)c1ccc(C(=O)c2c[nH]c(C(=O)NCc3ccco3)c2)cc1,–,-11.7,"4110 nM [falling, single point]"
Cc1cccc(NC(=O)c2ccc3c(c2)OCCO3)c1C,"5620 nM [falling, single point]",-47.4,"411 nM [falling, full curve, poor fit]"
Cc1ccc(C(C)n2cc(C(=O)NCc3cccnc3)nn2)cc1 (stereo not given),–,83.1,"14600 nM [rising, partial curve]"
Cn1ncc2c(N3CCCCC3)nc(NCCCO)nc21,"29100 nM [rising, single point]",-5.37,–
CC(=O)N1CCN(c2nc(N)c(C#N)c(CC#N)c2C#N)CC1,"731 nM [rising, full curve, poor fit]",21.7,–
CCOc1ccc(C(=O)NN2CCOCC2)cc1,"29100 nM [rising, single point]",16.4,–
O=C(/C=C/c1ccco1)OCC(=O)c1cccc([N+](=O)[O-])c1,"6510 nM [rising, single point]",14.3,–
C=CCn1c(SCC(=O)Nc2nc3ccccc3s2)nnc1-c1ccccc1O,–,-75.9,–
Fc1ccccc1COc1ccc(-c2nnn(Cc3ccccc3F)n2)cc1,"184 nM [rising, full curve]",21.7,–
Cc1cccc(CN2CCC(C(N)=O)CC2)c1,"116 nM [falling, full curve, poor fit]",7.7,–
CCCNC(=O)Nc1nccs1,"6510 nM [rising, single point]",24.9,–
O=C(NCc1ccccc1)C(c1ccco1)N(C(=O)c1ccccn1)c1ccccc1 (stereo not given),–,8.97,–
CC(OC(=O)C1CCCO1)C(=O)NC1CCCC1 (stereo not given),"29100 nM [falling, partial curve]",-22.6,"517 nM [falling, partial curve]"
CC(C)COC(=O)N1CC(O)CC1C(=O)Nc1ccc2c(c1)OCO2 (stereo not given),"130 nM [rising, full curve, poor fit]",2.85,–
CCC(C)(C)n1nnnc1C(c1ccc2ncccc2c1)N1CCN(c2nc3ccccc3s2)CC1 (stereo not given),"184 nM [rising, partial curve]",–,"146 nM [rising, full curve]"
CCCC(=O)Nc1ccc(-c2cn3cccnc3n2)cc1,–,7.21,"146 nM [rising, full curve, poor fit]"
CC(=O)Nc1ccc(NC(=O)c2cccc(C(=O)OC(C)C)n2)cc1,"29100 nM [rising, single point]",-0.446,–
